## Screening data

Data taken from PubChem BioAssay AID1345084, deposited by NCATS (2018).

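Living-cell ATP in ovarian and cervical tumor lines is read as light output two days after treatment, as a measure of cell killing. Each compound was tested at five concentrations, including 0.46, 2.3 and 57.5 µM as the top dose. The number is the fitted AC50 potency, and a lower value means stronger cell killing. Calls follow an activity score built from curve class and fitted AC50: 40 to 100 is active, 1 to 39 is inconclusive, and 0 is inactive.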

Values are in µM. Every entry below has the call inconclusive. Only part of the assay is shown, chiefly results filed as inconclusive. A potency from a partial, single-point or poor curve is only a rough figure. Some entries filed as inconclusive have a full curve. The first word of each remark tells which way the curve ran; it can be opposite to the aim of the assay. Activity scores are not listed here.

structure	tested on / at	potency (µM)	curve
C=C[C@@]12COC(=O)C(=C)[C@@H]1[C@@H](O)[C@H](C(=C)C(=O)OC)[C@@H](O)C2	JEG-3	4.467	-
C=C[C@@]12COC(=O)C(=C)[C@@H]1[C@@H](O)[C@H](C(=C)C(=O)OC)[C@@H](O)C2	HeLa	0.7079	-
C=C[C@@]12COC(=O)C(=C)[C@@H]1[C@@H](O)[C@H](C(=C)C(=O)OC)[C@@H](O)C2	Tov-21-G	3.981	-
CC[C@@H](N)CNc1ccnc(-c2cc(-c3cnn(C)c3)ccc2O)n1	SKOV3	17.78	cytotoxic, partial curve, poor fit
CC[C@@H](N)CNc1ccnc(-c2cc(-c3cnn(C)c3)ccc2O)n1	HeLa	22.39	cytotoxic, partial curve, poor fit
CC[C@@H](N)CNc1ccnc(-c2cc(-c3cnn(C)c3)ccc2O)n1	OV90	15.85	cytotoxic, partial curve, poor fit
CC(C)CC(N(C)C)C1(c2ccc(Cl)cc2)CCC1 (centres unmarked)	CASKI	39.81	cytotoxic, single point
COc1ccc([C@H]2OC[C@H]3[C@@H]2CO[C@@H]3c2ccc(O[C@@H]3O[C@H](CO)C(O)[C@H](O)[C@H]3O)c(OC)c2)cc1OC (some centres unmarked)	JEG-3	8.912	rising, partial curve, poor fit
COc1ccc([C@H]2OC[C@H]3[C@@H]2CO[C@@H]3c2ccc(O[C@@H]3O[C@H](CO)C(O)[C@H](O)[C@H]3O)c(OC)c2)cc1OC (some centres unmarked)	SKOV3	2.818	rising, full curve
CC(C)c1cc(C(C)C)c(CC(=O)NS(=O)(=O)Oc2c(C(C)C)cccc2C(C)C)c(C(C)C)c1	HeLa	19.95	cytotoxic, single point
CC(C)c1cc(C(C)C)c(CC(=O)NS(=O)(=O)Oc2c(C(C)C)cccc2C(C)C)c(C(C)C)c1	CAOV3	3.548	rising, single point
CC(C)c1cc(C(C)C)c(CC(=O)NS(=O)(=O)Oc2c(C(C)C)cccc2C(C)C)c(C(C)C)c1	PA-1	39.81	cytotoxic, partial curve, poor fit
CC(C)c1cc(C(C)C)c(CC(=O)NS(=O)(=O)Oc2c(C(C)C)cccc2C(C)C)c(C(C)C)c1	Hek293T; control line for the selectivity index	39.81	cytotoxic, single point
CCNC(=O)CC1N=C(c2ccc(Cl)cc2)c2cc(OC)ccc2-n2c(C)nnc21 (centres unmarked)	HeLa	0.8913	cytotoxic, full curve, poor fit
CCNC(=O)CC1N=C(c2ccc(Cl)cc2)c2cc(OC)ccc2-n2c(C)nnc21 (centres unmarked)	CAOV3	39.81	cytotoxic, single point
CCNC(=O)CC1N=C(c2ccc(Cl)cc2)c2cc(OC)ccc2-n2c(C)nnc21 (centres unmarked)	Hek293T; control line for the selectivity index	7.943	cytotoxic, full curve
C[C@@H]1O[C@@H](OC2CCC3(C=O)C(CCC4C3CCC3(C)C(C5=CC(=O)OC5)C(O)CC43O)C2)[C@H](O)[C@H](O)[C@H]1O[C@@H]1O[C@H](CO)[C@@H](O)[C@H](O)[C@H]1O (some centres unmarked)	OV90	12.59	cytotoxic, single point
C[C@@H]1O[C@@H](OC2CCC3(C=O)C(CCC4C3CCC3(C)C(C5=CC(=O)OC5)C(O)CC43O)C2)[C@H](O)[C@H](O)[C@H]1O[C@@H]1O[C@H](CO)[C@@H](O)[C@H](O)[C@H]1O (some centres unmarked)	CAOV3	11.22	cytotoxic, single point
C[C@@H]1O[C@@H](OC2CCC3(C=O)C(CCC4C3CCC3(C)C(C5=CC(=O)OC5)C(O)CC43O)C2)[C@H](O)[C@H](O)[C@H]1O[C@@H]1O[C@H](CO)[C@@H](O)[C@H](O)[C@H]1O (some centres unmarked)	JEG-3	12.59	cytotoxic, single point
C[C@@H]1O[C@@H](OC2CCC3(C=O)C(CCC4C3CCC3(C)C(C5=CC(=O)OC5)C(O)CC43O)C2)[C@H](O)[C@H](O)[C@H]1O[C@@H]1O[C@H](CO)[C@@H](O)[C@H](O)[C@H]1O (some centres unmarked)	HeLa	12.59	cytotoxic, single point
N#Cc1cnc2cnc(NCc3cccnc3)cc2c1Nc1ccc(F)c(Cl)c1	SKOV3	11.22	cytotoxic, partial curve, poor fit
N#Cc1cnc2cnc(NCc3cccnc3)cc2c1Nc1ccc(F)c(Cl)c1	CAOV3	19.95	cytotoxic, single point
N#Cc1cnc2cnc(NCc3cccnc3)cc2c1Nc1ccc(F)c(Cl)c1	C33A	25.12	cytotoxic, single point
N#Cc1cnc2cnc(NCc3cccnc3)cc2c1Nc1ccc(F)c(Cl)c1	Hek293T; control line for the selectivity index	35.48	cytotoxic, single point
N#Cc1cnc2cnc(NCc3cccnc3)cc2c1Nc1ccc(F)c(Cl)c1	CASKI	28.18	cytotoxic, single point
N#Cc1cnc2cnc(NCc3cccnc3)cc2c1Nc1ccc(F)c(Cl)c1	Tov-21-G	19.95	cytotoxic, partial curve
N#Cc1cnc2cnc(NCc3cccnc3)cc2c1Nc1ccc(F)c(Cl)c1	PA-1	19.95	cytotoxic, single point
N#Cc1cnc2cnc(NCc3cccnc3)cc2c1Nc1ccc(F)c(Cl)c1	OV90	31.62	cytotoxic, single point
CCOC(=O)c1ccc(O)c(O)c1	PA-1	39.81	cytotoxic, single point
NC(=O)c1cc([N+](=O)[O-])cc([N+](=O)[O-])c1	JEG-3	22.39	cytotoxic, partial curve
COc1cc2ncnc(Nc3cccc(Cl)c3F)c2cc1OC(=O)N1CCN(C)C[C@H]1C	Hek293T; control line for the selectivity index	0.7079	-
COc1cc2ncnc(Nc3cccc(Cl)c3F)c2cc1OC(=O)N1CCN(C)C[C@H]1C	JEG-3	0.8913	-
CN(C)CCCN1c2ccccc2CCc2ccccc21	Es-2	28.18	cytotoxic, partial curve, poor fit
CN(C)CCCN1c2ccccc2CCc2ccccc21	HeLa	50.12	-
CCOC(=O)COc1ccc2c(c1)C[C@@H](NC[C@H](O)c1cccc(Cl)c1)CC2	SKOV3	31.62	rising, single point
Cc1c(N2C(=O)c3ccc(C(=O)O)cc3C2=O)c(=O)n(-c2ccccc2)n1C	CAOV3	39.81	rising, single point
CNCc1ccccc1	JEG-3	39.81	cytotoxic, single point
COc1c(C)c(OCC=C(C)C)cc2c1CNC2=O	PA-1	22.39	-
CCc1oc2ccccc2c1C(=O)c1cc(Br)c(O)c(Br)c1	SKOV3	25.12	cytotoxic, single point
CCc1oc2ccccc2c1C(=O)c1cc(Br)c(O)c(Br)c1	HeLa	35.48	cytotoxic, single point
COc1ccc(C2(O)c3c(ccc4c3OC(C)(CCC=C(C)C)C=C4)NC(=O)C2OC)cc1 (centres unmarked)	CASKI	0.3548	cytotoxic, partial curve, poor fit
COc1ccc(C2(O)c3c(ccc4c3OC(C)(CCC=C(C)C)C=C4)NC(=O)C2OC)cc1 (centres unmarked)	SKOV3	0.8913	cytotoxic, single point
CCCCC(=O)N(Cc1ccc(-c2ccccc2-c2nn[nH]n2)cc1)C(C(=O)O)C(C)C (centres unmarked)	SKOV3	3.548	rising, full curve, poor fit
O=c1cc(NCCCN[C@@H]2CCOc3c(Br)cc(Br)cc32)[nH]c2ccsc12	Hek293T; control line for the selectivity index	17.78	cytotoxic, single point
CCC1(CC)C(=O)NC(=O)NC1=O	Hek293T; control line for the selectivity index	17.78	rising, partial curve, poor fit
CC(C)c1c(CN(C)C(C)Cc2ccccc2)n(C)n(-c2ccccc2)c1=O (centres unmarked)	OV90	11.22	cytotoxic, partial curve
CN1CCCC(CC2c3ccccc3Sc3ccccc32)C1 (centres unmarked)	CAOV3	39.81	cytotoxic, single point
C=C(C(=O)O)[C@@H]1CC[C@@]2(C)CC[C@H](O)[C@@]2(C(C)=O)C1	SKOV3	3.548	rising, full curve
CCO/N=C(\CC)C1=C(O)CC(c2c(C)cc(C)cc2C)CC1=O (centres unmarked)	JEG-3	39.81	cytotoxic, partial curve, poor fit
C=CC1(C)C=C2CC[C@H]3[C@@](C)(C(=O)O)CCC[C@]3(C)C2CC1 (some centres unmarked)	SKOV3	0.3548	cytotoxic, single point
COc1cc2nccc(Oc3ccc(NC(=O)C4(C(=O)Nc5ccc(F)cc5)CC4)cc3)c2cc1OC	OV90	19.95	cytotoxic, partial curve, poor fit
COc1cc2nccc(Oc3ccc(NC(=O)C4(C(=O)Nc5ccc(F)cc5)CC4)cc3)c2cc1OC	CASKI	39.81	cytotoxic, single point
COc1cc2nccc(Oc3ccc(NC(=O)C4(C(=O)Nc5ccc(F)cc5)CC4)cc3)c2cc1OC	Tov-21-G	31.62	cytotoxic, single point
COc1cc2nccc(Oc3ccc(NC(=O)C4(C(=O)Nc5ccc(F)cc5)CC4)cc3)c2cc1OC	CAOV3	39.81	cytotoxic, partial curve, poor fit
CCC(=O)O[C@H]1C(C)(C)[C@H]([C@@H](O)C(=O)OC)[C@]2(C)C(=O)[C@@]1(O)[C@H]1O[C@]13C1CC(=O)O[C@@H](c4ccoc4)[C@]1(C)CCC32 (some centres unmarked)	SKOV3	6.31	rising, partial curve, poor fit
CCCc1cc(=O)[nH]c(=S)[nH]1	SKOV3	7.08	rising, single point
Cc1cccc(C(=O)O)c1O	Es-2	4.467	-
Cc1cccc(C(=O)O)c1O	Tov-21-G	0.0251	-
Cc1cccc(C(=O)O)c1O	HeLa	1.995	-
CO[C@@H]1[C@@H](O)[C@@H](O[C@H]2CC[C@]3(C=O)C4CC[C@]5(C)[C@@H](C6=CC(=O)OC6)CC[C@]5(O)[C@@H]4CC[C@H]3C2)O[C@@H](C)[C@H]1O[C@@H]1O[C@H](CO[C@@H]2O[C@H](CO)[C@@H](O)[C@H](O)[C@H]2O)[C@@H](O)[C@H](O)[C@H]1O (some centres unmarked)	HeLa	10	cytotoxic, single point
CO[C@@H]1[C@@H](O)[C@@H](O[C@H]2CC[C@]3(C=O)C4CC[C@]5(C)[C@@H](C6=CC(=O)OC6)CC[C@]5(O)[C@@H]4CC[C@H]3C2)O[C@@H](C)[C@H]1O[C@@H]1O[C@H](CO[C@@H]2O[C@H](CO)[C@@H](O)[C@H](O)[C@H]2O)[C@@H](O)[C@H](O)[C@H]1O (some centres unmarked)	Hek293T; control line for the selectivity index	3.548	cytotoxic, partial curve
CC1CC(=O)C2C(O)(C1)CC(O)C13OC1c1c(O)cccc1C(=O)C23O (centres unmarked)	Hek293T; control line for the selectivity index	28.18	cytotoxic, single point

4 of the entries, repeated:

{"structure": "C=C(C(=O)O)[C@@H]1CC[C@@]2(C)CC[C@H](O)[C@@]2(C(C)=O)C1", "tested on / at": "SKOV3", "potency (µM)": "3.548", "curve": "rising, full curve"}
{"structure": "Cc1cccc(C(=O)O)c1O", "tested on / at": "Es-2", "potency (µM)": "4.467"}
{"structure": "COc1ccc(C2(O)c3c(ccc4c3OC(C)(CCC=C(C)C)C=C4)NC(=O)C2OC)cc1", "stereo": "centres unmarked", "tested on / at": "CASKI", "potency (µM)": "0.3548", "curve": "cytotoxic, partial curve, poor fit"}
{"structure": "CC(C)c1cc(C(C)C)c(CC(=O)NS(=O)(=O)Oc2c(C(C)C)cccc2C(C)C)c(C(C)C)c1", "tested on / at": "CAOV3", "potency (µM)": "3.548", "curve": "rising, single point"}